Values of other authors, collected in patent publication US6977252B1, “Use of 1,4-benzothiazepine derivatives as drugs for overcoming resistance to anticancer drugs” (Noboru Kaneko, priority 1999, dated 2005).
At least one structure is not confirmed: it was looked up by name or label, or the drawing left a doubt.

Tests used:
[1] = system: B16a cell and B16a-Pt cell line; conditions: B16a cell and cisplatin-resistant B16a-Pt cell line; cited from earlier work
[2] = system: GB-1 human glioblastoma cell and U87-GM cell; conditions: GB-1 cell and U87-GM cell; cited from earlier work

Row | Structure (SMILES) | enhancement of antitumor effect of cisplatin [1] | drugs that enhance any significant antitumor effect of cisplatin [2]
1 | COC(=O)C1=C(C)NC(C)=C(C(=O)OCCN(C)Cc2ccccc2)C1c1cccc([N+](=O)[O-])c1 (stereo not drawn) [nicardipine] | do not exhibit any significant enhanced antitumor effect | none
2 | COCCOC(=O)C1=C(C)NC(C)=C(C(=O)OC(C)C)C1c1cccc([N+](=O)[O-])c1 (stereo not drawn) [nimodipine] | do not exhibit any significant enhanced antitumor effect | none
3 | COC(=O)C1=C(C)NC(C)=C(C(=O)OC)C1c1ccccc1[N+](=O)[O-] [nifedipine] | enhances the antitumor effect of cisplatin | 
4 | COC(=O)C1=C(C)NC(C)=C(C(=O)OCC(C)C)C1c1ccccc1[N+](=O)[O-] (stereo not drawn) [nisoldipine] |  | none
